The values that follow come from US11186605B2 (KYOWA HAKKO BIO CO., LTD., priority 2016, dated 2021).

For the data set the following is noted: mass ppm in crystal; N.D. = below a detection limit.
Turning to “cytidine diphosphate choline [Comparative Example 1]”, the “Residual solvent Ethyl acetate” value came out at 240 ppm and the “Residual solvent Methanol” value is on record as 2482 ppm. Regarding “cytidine diphosphate choline [Comparative Example 2]”, the “Residual solvent Ethanol” value was 412 ppm, the “Residual solvent Ethyl acetate” value turned out to be 667 ppm and the “Residual solvent Methanol” value is on record as 3937 ppm. On to “cytidine diphosphate choline [Comparative Example 3]”, for which the “Residual solvent Ethanol” value is reported as 170 ppm. On the same count and under the same terms, with “cytidine diphosphate choline [Comparative Example 4]” the figure was 490 ppm; with “cytidine diphosphate choline [Example 1]”, 177 ppm. Same read-out and setting: with “cytidine diphosphate choline [Example 2]” the figure was 173 ppm; with “cytidine diphosphate choline [Example 3]”, 423 ppm; with “cytidine diphosphate choline [Example 4]”, 340 ppm. As to “cytidine diphosphate choline [Product of company A]”, the “Residual solvent Ethanol” value stood at 201 ppm and the “Residual solvent Methanol” value was determined as 64 ppm. On the same counts, the results for “cytidine diphosphate choline [Product of company B]” are 130 ppm and 42 ppm. On the same counts, the results for “cytidine diphosphate choline [Product of company C]” are 305 ppm and 26 ppm.
